The name of at least one read-out is uncertain.
Test: Solubility / solubilization assessment of doravirine and islatravir
Format: physicochemical
Conditions: preliminary solubilization studies
Description: Details are provided in Example 5.
The manufacturing process includes standard unit operations and equipment for tablet production.

SMILES: C#C[C@@]1(CO)O[C@H](n2cnc3c(N)nc(F)nc32)C[C@H]1O [islatravir, (2S,3R,5S)-5-(6-amino-2-fluoro-9H-purin-9-yl)-2-ethynyl-2-(hydroxymethyl)tetrahydrofuran-3-ol]
- Solubilization in mixtures with excipients and doravirine spray dried intermediate: did not fully dissolve unless the polymer was fully dissolved

— patent publication US20260165973A1 (MERCK SHARP & DOHME LLC, priority 2023, published 2026)
